# Test results reported in PubChem BioAssay (NCATS).
# Values joined by “and” are separate entries in the source; they are usually repeats but may differ in a detail not shown here. Identical values can stand only once. The list shows a part of the results. Shown are side measurements of this screen, not its main read-out; they come without a call. For part of these data: The list favours compounds with an active or inconclusive main result. For part of these data: Potencies come from curve fits of mixed quality, noted in brackets.
# Columns and labels:
# [1] = NCATS anti-infectives library activity on the primary C. elegans qHTS viability assay (AID 1745855); details: C. elegans worm area imaging
# Outline: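 Titration-based screen in worms: eggs hatched overnight in M9, L1 larvae fed TOP10 capsules in S medium with compound, incubated 21 °C for 7 days; fluorescent objects gated by size and intensity at days 0, 3 and 7.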
# [2] = qHTS drug screen for cell cycle checkpoint inhibitors in PARPi-resistant BRCA-mutant ovarian cancer cell lines. (AID 1963452); details: PEO1/OlaR viability, CellTiter-Glo luminescence, 96 h
# Outline: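 PEO1, PEO4 and PEO1/OlaR ovarian cancer cells, 600 per well, exposed 96 h at 37C to a dilution series. Viability read by CellTiter-Glo luminescence, normalized to DMSO and empty wells; activity summarized as Z-AUC.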
# [3] = qHTS assay for small molecule antagonists of peroxisome proliferator-activated receptor delta signaling (AID 588535); details: HEK293T PPARd-UAS-bla, beta-lactamase FRET ratio, 18 h; 460 nm channel;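 note: cells co-treated with a PPAR-delta agonist as stimulator during compound exposure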
# Outline: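 Antagonist-mode qHTS using GeneBLAzer PPAR-delta-UAS-bla HEK293T cells; compound exposure 18 hrs at 37 C over a titration. Ratiometric CCF4 fluorescence at 460/530 nm; concentration-response points fitted to the Hill equation.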
# [4] = qHTS assay for small molecule antagonists of peroxisome proliferator-activated receptor gamma signaling (AID 588537); details: HEK293 PPARg-UAS-bla, beta-lactamase ratio, antagonist mode; measured here: W460 blue channel
# Outline: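 Cell-based beta-lactamase assay; GW9662 served as the antagonist control. Stimulation used rosiglitazone, final 50 nM, 16 h, 37 C.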
# [5] = qHTS assay for small molecule agonists of retinoid X receptor alpha signaling (AID 588544); details: HEK293T RXRa-UAS-bla, beta-lactamase reporter, 18 h; 530 nm emission
# [6] = qHTS assay for small molecule antagonists of retinoid X receptor alpha signaling (AID 588546); details: HEK293T RXRa-UAS-bla, beta-lactamase ratio, antagonist mode; measured here: W530 green channel, cytotoxicity proxy;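 note: cells stimulated with 9-cis-retinoic acid as agonist; % is set by controls: 0 for no effect and ±100 for the full control effect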
# Outline: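 Beta-lactamase reporter inhibition, read as CCF4 fluorescence ratio (ex 405, em 460/530 nm) after 2 h at RT. HEK293T UAS-bla cells, 2500/well, were stimulated with 9-cis-RA at 500 or 100 nM final alongside test compound for 18 h at 37 C.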
# [7] = qHTS for identification of novel therapeutic agents for treatment of microphthalmiaassociated transcription factor (MiT) renal cell carcinoma (RCC) (AID 1963991); details: CellTiter-Glo, 48 h; for z-score: stronger effect = lower value
# Outline: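 Three TFE3-fusion RCC cell lines (UOK109, UOK124, UOK145), 500 cells/well, were exposed to the 1912-compound MIPE 4.0 library for 48 hours at 37 C. Viability was read by CellTiter-Glo luminescence, normalised to DMSO (100%) and empty wells (0%), with 11-concentration curve fits.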
# [8] = S16 Schwann cell PMP22 intronic element beta-lactamase assay (AID 624044); details: S16 rat Schwann cells, PMP22 element beta-lactamase FRET, 24 h
# Outline: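 Beta-lactamase reporter under a PMP22 intronic regulatory element in stable S16 rat Schwann cells; 24 h compound exposure. 460 nm blue signal normalized between DMSO (0%) and potassium clavulanate, with 535 nm FRET tracking viability; curves classed by r2 and response.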
# [9] = day 7, measured here: worm number
# [10] = measured here: PEO1 parental viability
# [11] = day 7, measured here: worm area, day 3
# [12] = day 7, measured here: worm number, day 3
# [13] = TFE3-RCC viability, measured here: UOK124 cell viability
# [14] = TFE3-RCC viability, measured here: UOK145 cell viability
smiles,measurement,setting,value
C[C@@H]1CC[C@H]2[C@@H](C)C(=O)O[C@@H]3O[C@@]4(C)CC[C@@H]1[C@]32OO4,AC50,[1]; [9],"1.45 µM [falling, full curve, poor fit]"
same,AC50,[2]; [10],"1740 nM [falling, full curve, poor fit]"
COC12C(COC(N)=O)C3=C(C(=O)C(C)=C(N)C3=O)N1CC1C2N1C (centres undefined),AC50,[2]; [10],"616 nM [rising, full curve, poor fit]"
CCCCCCC(C)(C)c1cc(O)c2c(c1)OC(C)(C)C1CC=C(CO)C[C@H]21 (some centres undefined),AC50,[2]; [10],"24500 nM [falling, single point]"
same,AC50,[2]; measured here: PEO4 viability,"15500 nM [falling, single point]"
Cc1sc2c(c1C)C(c1ccc(Cl)cc1)=N[C@@H](CC(N)=O)c1nnc(C)n1-2,AC50,[2]; [10],"549 nM [falling, full curve] and 490 nM [falling, full curve]"
same,AC50,[2]; measured here: PEO4 viability,"110 nM [falling, full curve] and 871 nM [falling, full curve]"
Cc1sc2c(c1C)C(c1ccc(Cl)cc1)=N[C@@H](CC(=O)Nc1ccc(O)cc1)c1nnc(C)n1-2,AC50,[1]; [9],"36.5 µM [falling, single point]"
same,AC50,[2]; [10],"977 nM [falling, full curve]"
same,AC50,[2]; measured here: PEO4 viability,"490 nM [falling, full curve]"
O=C(O)CNC(=O)C1C(=O)N(C2CCCCC2)C(=O)N(C2CCCCC2)C1=O,AC50,[2]; [10],"21900 nM [rising, partial curve, poor fit]"
same,AC50,[2]; measured here: PEO4 viability,"4900 nM [rising, partial curve]"
CC(=O)OC[C@H]1O[C@@H]([S-])[C@H](OC(C)=O)[C@@H](OC(C)=O)[C@@H]1OC(C)=O.CC[PH+](CC)CC.[Au],AC50,[2]; [10],"1550 nM [falling, full curve]"
same,AC50,[2]; measured here: PEO4 viability,"692 nM [falling, full curve]"
C[C@@H]1C[C@@H]([C@H](O)CC2CC(=O)NC(=O)C2)C(=O)[C@@H](C)C1,max response,[3],-120%
same,AC50,[4],"17.8 µM [falling, partial curve, poor fit] and 1 µM [falling, full curve]"
same,max response,[5],1.98% and -13.5%
same,max response,[6],-10.1% and -11% and -8.01%
same,AC50,[1]; [11],"70.8 µM [falling, single point]"
same,AC50,[1]; [12],"56.2 µM [falling, single point]"
same,AC50,[2]; [10],"1230 nM [falling, full curve]"
same,AC50,[2]; measured here: PEO4 viability,"1230 nM [falling, full curve]"
same,AC50,[7]; [13],"0.118 µM [falling, full curve]"
same,AC50,[7]; [14],"0.187 µM [falling, full curve]"
CC1=C(O)C(=O)C=C2C1=CC=C1[C@@]2(C)CC[C@@]2(C)[C@@H]3C[C@](C)(C(=O)O)CC[C@]3(C)CC[C@]12C,AC50,[1]; [9],"0.816 µM [falling, full curve, poor fit]"
same,AC50,[1]; [11],"2.9 µM [falling, partial curve, poor fit]"
same,AC50,[7]; [13],"2.96 µM [falling, full curve]"
same,AC50,[7]; [14],"1.66 µM [falling, full curve]"
O=S(=O)(CC1CS1)c1ccc(Oc2ccccc2)cc1 (centres undefined),AC50,[1]; [11],"0.0816 µM [falling, full curve, poor fit]"
same,AC50,[1]; [12],"1.83 µM [falling, full curve, poor fit]"
same,z-score,"[7]; TFE3-RCC UOK109 viability, measured here: UOK109 Z-AUC",0.808
same,z-score,"[7]; TFE3-RCC viability, measured here: UOK124 Z-AUC",-0.065
same,AC50,[7]; [13],"18.7 µM [falling, partial curve]"
same,z-score,"[7]; TFE3-RCC viability, measured here: UOK145 Z-AUC",0.726
CC(C)[C@]12O[C@H]1[C@@H]1O[C@]13[C@]1(O[C@H]1C[C@H]1C4=C(CC[C@@]13C)C(=O)OC4)[C@@H]2O,AC50,[2]; [10],"38.9 nM [falling, full curve]"
same,AC50,[2]; measured here: PEO4 viability,"27.5 nM [falling, full curve]"
C/C1=C/C[C@@H](/C(C)=C/c2csc(C)n2)OC(=O)C[C@H](O)C(C)(C)C(=O)[C@H](C)[C@@H](O)[C@@H](C)CCC1,AC50,[2]; [10],"43.6 nM [falling, full curve]"
same,AC50,[2]; measured here: PEO4 viability,"17.4 nM [falling, full curve]"
CC(=O)O[C@@]12CO[C@@H]1C[C@H](O)[C@@]1(C)C(=O)[C@H](O)C3=C(C)[C@@H](O)C[C@@](O)([C@@H](OC(=O)c4ccccc4)[C@H]21)C3(C)C,AC50,[2]; [10],"24500 nM [falling, single point]"
C/C(=C\c1csc(C)n1)[C@@H]1C[C@@H]2O[C@@H]2CCC[C@H](C)[C@H](O)[C@@H](C)C(=O)C(C)(C)[C@@H](O)CC(=O)O1,AC50,[2]; [10],"15.5 nM [falling, full curve]"
same,AC50,[2]; measured here: PEO4 viability,"11 nM [falling, full curve]"
C[C@H](Nc1ncnc2nc[nH]c12)c1nc2ccc(F)cc2c(=O)n1-c1ccccc1,AC50,[2]; [10],"5490 nM [falling, full curve, poor fit]"
O=S(=O)(F)Cc1ccccc1,AC50,[1]; [9],"9.16 µM [falling, partial curve, poor fit]"
same,AC50,[2]; [10],"6160 nM [rising, partial curve, poor fit]"
Cn1c(CCCC(=O)O)nc2cc(N(CCCl)CCCl)ccc21,AC50,[2]; [10],"15500 nM [falling, single point]"
CC(C)(O)/C=C\C(=O)[C@](C)(O)[C@H]1[C@H](O)C[C@]2(C)[C@@H]3CC=C4[C@@H](C=C(O)C(=O)C4(C)C)[C@]3(C)C(=O)C[C@@]12C,AC50,[2]; [10],"776 nM [falling, full curve]"
same,AC50,[2]; measured here: PEO4 viability,"87.1 nM [falling, full curve]"
[Hg+][c]1ccccc1,AC50,[8]; measured here: 460 nm blue channel,"12.6 µM [falling, full curve]"
same,AC50,[8]; measured here: 530 nm viability channel,"28.2 µM [falling, single point]"
same,AC50,[1]; [9],"1.29 µM [falling, partial curve, poor fit]"
same,AC50,[1]; [11],"1.45 µM [falling, partial curve, poor fit]"
same,AC50,[1]; [12],"14.5 µM [falling, partial curve, poor fit]"
CO/C1=C/C(C)=C\[C@@H](C)[C@@H](O)[C@@H](C)C/C(C)=C\C=C/[C@H](OC)[C@@H]([C@@H](C)[C@@H](O)[C@H](C)[C@@]2(O)C[C@@H](O)[C@H](C)[C@@H](C(C)C)O2)OC1=O,AC50,[2]; [10],"8.2 nM [falling, full curve]"
same,AC50,[2]; measured here: PEO4 viability,"10.3 nM [falling, full curve]"
